These are yes or no findings as the source states them, for the method shown. In cells and extracts the contact can be indirect. Some binding calls cover weakened binding; strength is not graded here.
Target: mouse recombinant IGF-1 (Insulin Growth Factor 1) (mouse) (UniProt P05017)
Experiment: co-immunoprecipitation and western blot; mouse recombinant proteins (FIG. 5 (I)) and retina lysates (FIG. 5 (II))

Chains of the proteins cited; added tags and fusions are not shown. Residues count along the entry.
UniProt P05017, residues 49-118: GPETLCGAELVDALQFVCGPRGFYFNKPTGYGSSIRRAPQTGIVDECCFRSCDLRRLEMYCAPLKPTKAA

B1: mouse recombinant IGFBPL-1 (insulin-like growth factor binding protein-like 1) (protein, UniProt Q80W15 18-270, looked up)
chain: LGLRDAGRRHPECSPCQQDRCPAPSPCPAPWISARDECGCCARCLGAEGASCGGPVGSRCGPGLVCASRASGTAPEGTGLCVCAQRGAVCGSDGRSYSSICALRLRARHAPRAHHGHLHKARDGPCEFAPVVLMPPRDIHNVTGTQVFLSCEVKAVPTPVITWKKVKHSPEGTEGLEELPGDHVNIAVQVRGGPSDHETTSWILINPLRKEDEGVYHCHAANAIGEAQSHGTVTVLDLNRYKSLYSSVPGDLL
  binding: binds

— patent publication US12295985
